Measured values as given in PMC7819943, “Rice protein-binding microarrays: a tool to detect cis-acting elements near promoter regions in rice”.
Some of the results follow.

Each sequence was assayed against T1, OsSMF1 (Oryza sativa, UniProt Q6ZLB0 1-436) (assay: protein-binding microarray (RPBM); PBS, 2% BSA, 51.3 ng/ul salmon testes DNA, 50 uM zinc acetate, 200 nM TF, 25 C, 1 h; high values mean tight binding). Settings: protein: recombinant; tags: N-terminal polyhistidine and DsRed monomer fusion (pET32a); chain copies: 2; label: CyDye5-dUTP incorporated in the synthesized complementary strand; 3' TTTTT single-stranded linker to array surface; dsDNA, one strand shown.
T1 sequence: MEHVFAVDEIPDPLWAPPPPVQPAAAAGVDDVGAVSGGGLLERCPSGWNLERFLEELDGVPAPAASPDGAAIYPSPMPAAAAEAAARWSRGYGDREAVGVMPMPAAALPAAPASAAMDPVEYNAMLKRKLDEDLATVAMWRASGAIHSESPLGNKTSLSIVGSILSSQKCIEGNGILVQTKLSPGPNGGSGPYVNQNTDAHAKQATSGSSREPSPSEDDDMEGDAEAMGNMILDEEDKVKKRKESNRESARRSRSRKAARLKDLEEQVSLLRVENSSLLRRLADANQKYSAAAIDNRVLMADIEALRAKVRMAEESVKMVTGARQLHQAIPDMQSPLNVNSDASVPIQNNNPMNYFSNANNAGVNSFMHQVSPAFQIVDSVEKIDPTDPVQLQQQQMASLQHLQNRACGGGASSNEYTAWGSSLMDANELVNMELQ
Outline: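 Binding signal is reported as fluorescence intensity per feature (arbitrary units) from an Axon 4000B scanner. Incubation used 200 nM of each Ni–NTA-purified, N-terminally polyhistidine- and DsRed-fused transcription factor from E. coli BL21-CodonPlus on a double-stranded custom Agilent array for 1 h at 25 °C, with 50 µM zinc acetate in the buffer, followed by washing.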

Sequence	binding signal
GCTAAATAAACTCGTCTGAGCACATGTGGCCCGATGTGTCCGGAGTCACCTAGTGCAG	3440 fluorescence intensity (a.u.)
TCCCACTCGATTTGGGAGAAAATACAGGGATTAAACTCTGCGGAGTCACCTAGTGCAG	3550 fluorescence intensity (a.u.)
CTTGCTTGCTTACGTCTCTCTCGCACACTCCCACTATTCTCGGAGTCACCTAGTGCAG	3330 fluorescence intensity (a.u.)
TAGAAACGTGCGAGTACGTGGAGGTTTTCCTTAACCTATCCGGAGTCACCTAGTGCAG	4920 fluorescence intensity (a.u.)
AATCTAACATGGATTTGCGCACACACTTGTCGTAACGTACCGGAGTCACCTAGTGCAG	3460 fluorescence intensity (a.u.)
TTTCTTAATCTACTCCATGCTGACTGGCTCCTAGGTTCAACGGAGTCACCTAGTGCAG	5330 fluorescence intensity (a.u.)
ATTAGGTGTTTCCAGTTAATTAAAGTCATGTAGTACGGATCGGAGTCACCTAGTGCAG	3620 fluorescence intensity (a.u.)
TCTAGTGCACACAGTAACGTGGAATCTCATCACGATCATTCGGAGTCACCTAGTGCAG	3780 fluorescence intensity (a.u.)
TGATACGAGCAGCGGCCGTCGGTGTCAGCGAACAGAGCGCCGGAGTCACCTAGTGCAG	3240 fluorescence intensity (a.u.)
TGCTGCCAGAGTCAGTAGGTGCCCTCTTCCACCTGCAGACCGGAGTCACCTAGTGCAG	3270 fluorescence intensity (a.u.)
GGCATCTCTTTCTTTCGCGTTTTCTCTTCCGCCAGATAGGCGGAGTCACCTAGTGCAG	3330 fluorescence intensity (a.u.)
TCTCCTATCTTACGAGACAAGAACACCAGCTGTCATGTGTCGGAGTCACCTAGTGCAG	4740 fluorescence intensity (a.u.)
ATCACTGAGGTATACAGGTAGCTAGCTAGCAAATTAAGTACGGAGTCACCTAGTGCAG	4070 fluorescence intensity (a.u.)
CTGGCGCTGAGTTTCCCACAGTCAGCGCCATTATGGCTGGCGGAGTCACCTAGTGCAG	5750 fluorescence intensity (a.u.)
CGCTTTTGTGTGGGAGAGGTTCGAACGTGTCCGGAATTTTCGGAGTCACCTAGTGCAG	3460 fluorescence intensity (a.u.)
ACATTTTACACCGTAAAACGGAGGAATTACCTGCGACTTTCGGAGTCACCTAGTGCAG	25500 fluorescence intensity (a.u.)
CTCACCGGCGTCAGCGTGCATCCATGGACACGAGCTCTTCCGGAGTCACCTAGTGCAG	3740 fluorescence intensity (a.u.)
CATTATGATCTGTCCACTCTTATTATAATTTTCATGAATGCGGAGTCACCTAGTGCAG	3950 fluorescence intensity (a.u.)
CTTGTCGCACTCGGGCTCCATCCACGTGGTGACGAAGGACCGGAGTCACCTAGTGCAG	8950 fluorescence intensity (a.u.)
GTTAGTTGTCACTGAACCCTACATTGTCATTTTCTTTTCACGGAGTCACCTAGTGCAG	22700 fluorescence intensity (a.u.)
CGCACTCAGCTTGTTCCTCTAACTGTACACAGTGGTACTTCGGAGTCACCTAGTGCAG	26500 fluorescence intensity (a.u.)

Random excerpt: 2 records from the list.
Sequence	binding signal
GGCATCTCTTTCTTTCGCGTTTTCTCTTCCGCCAGATAGGCGGAGTCACCTAGTGCAG	3330 fluorescence intensity (a.u.)
CTTGTCGCACTCGGGCTCCATCCACGTGGTGACGAAGGACCGGAGTCACCTAGTGCAG	8950 fluorescence intensity (a.u.)

Later entries

Sequence	binding signal
ATCTCGCGCTTCACACGCAACGCAAGAACTCGACGAGGCGCGGAGTCACCTAGTGCAG	3370 fluorescence intensity (a.u.)
CATCGTGCAGGTGCCCAGGCTGATGCTGCACCTGGACAAGCGGAGTCACCTAGTGCAG	3450 fluorescence intensity (a.u.)
ATGCACAATGCTAATGTACAACAGCATAACACTGTCACCCCGGAGTCACCTAGTGCAG	3230 fluorescence intensity (a.u.)
GTGGCCGGCGTCCCCTCGAGCGGCGCTCTCCTCCACCTCCCGGAGTCACCTAGTGCAG	28700 fluorescence intensity (a.u.)
GCCCACCGGCCCAACGGCTCGCTCCACCTGCACACGTGTCCGGAGTCACCTAGTGCAG	11700 fluorescence intensity (a.u.)
GTGAGGTTGGAATATTCTAGTTGCATGGCGTCATTTCACACGGAGTCACCTAGTGCAG	4340 fluorescence intensity (a.u.)
ATTGATCACTCGGACGTCACCAAACGATCGATAAACTCGTCGGAGTCACCTAGTGCAG	5630 fluorescence intensity (a.u.)
CATGTGTTGTGTCCATGTCCTATGTGGCTATGTGTATATACGGAGTCACCTAGTGCAG	3280 fluorescence intensity (a.u.)
TAGGGGTAGGGTTTGCGTGCGCGTGCATTGTGAGTGTCTGCGGAGTCACCTAGTGCAG	3980 fluorescence intensity (a.u.)
GCCGATACAGACAACGAGACAAGCCGCCGTCGCGTATCTCCGGAGTCACCTAGTGCAG	24100 fluorescence intensity (a.u.)
CCTTCATATGCGCGCACCGCTCCTCCCGTTGTTTCCATCGCGGAGTCACCTAGTGCAG	3240 fluorescence intensity (a.u.)
CCACACACAACCGATCGATATTTGCCCCGTCACACACAGCCGGAGTCACCTAGTGCAG	3810 fluorescence intensity (a.u.)
CGCCTGATACCTGGTAAGTATCGGCCGATACCCCGTTTGGCGGAGTCACCTAGTGCAG	3380 fluorescence intensity (a.u.)
AAACACACTGACACGCATTCGGCCCGTTCCCTCGATGCGTCGGAGTCACCTAGTGCAG	5340 fluorescence intensity (a.u.)
TTGATATTTTCCTACCTTCAGCGGGATAAACAATAGAGAACGGAGTCACCTAGTGCAG	25300 fluorescence intensity (a.u.)
GCGACGCCAACGAGGCCAATACCGGAAATAACACGCGCCCCGGAGTCACCTAGTGCAG	3390 fluorescence intensity (a.u.)
GGACGGTACATATCCGACGATGAAAACCAAACCAACCGTGCGGAGTCACCTAGTGCAG	3380 fluorescence intensity (a.u.)
AGCAACTCTTTTGACGTGGACAAATACAAACACGCGTCCACGGAGTCACCTAGTGCAG	8100 fluorescence intensity (a.u.)
ATCATCTAGTTAAGACTGTTTGTATGCAACTATGCATGTACGGAGTCACCTAGTGCAG	31400 fluorescence intensity (a.u.)
TCGTCGTCGTCGTCGTCGTCGTCCTCGGCTAATGCCGCCTCGGAGTCACCTAGTGCAG	3200 fluorescence intensity (a.u.)
CGCGGCGCGCGAGGGCGAGGGGCGGCGGCGGCGGCGGCGGCGGAGTCACCTAGTGCAG	5510 fluorescence intensity (a.u.)
